In PMC10163288:
Some of the results follow.

B1: il2ra_site2_3nfp_normal_mot_HHH_b1_00660_af2_000000090_0001_40_57_H_._HHH_b1_07783_af2_0001_0000200003_0000001_0_af2pred_0001_1_af2pred_swapped (protein)
chain: SSSSSEEEEEAERLLERIERLLKEGDEEEAEKLLREVAQLINELENHELFAILLELFELVLSSSS
B2: il2ra_site2_2erj_normal_mot_HHH_b2_00789_000000198_0001_40_54_H_._HHH_b2_07923_0001_0000200011_0000001_1 (protein)
chain: SSSSSDEEVLELIAEAIELAHNGNPEEARRVLEEALELAQELNDPLFERYVELSLEDIRNSSSSS
B3: il2ra_site1_2b5i_normal_mot_ems_3hM_3687_af2_000000248_0001_45_64_H_._HHH_b1_06890_af2_0001_0000200008_0000001_0_af2pred_dldesign_0_af2pred (protein)
chain: SSSSSDFDAEFEAAVAEARRLKEAGKRREALKLLEELYKKASELGREEVEERLEELARELSSSSS
B4: il2ra_site2_3nfp_normal_mot_HHH_b1_07556_000000077_0001_42_55_H_._51cc31007119fa75359d0ea3f4aa2c22_0001_1_0001_0000100003_0000001_0 (protein)
chain: DLLEELRELVERLGNEELLVILFSAIADLINEDPEEAQRVLEELVRLLEEGNYEEAERLAREVLK
B5: il2ra_site1_3nfp_normal_mot_HHH_b1_04049_af2_000000244_0001_42_55_H_._HHH_b2_07296_0001_0000400014_0000001_0 (protein)
chain: SSSDESKEVQELLKEIIELLREGDEERVEELLEELKRIAHEANDPVAERLVRQYEKQVKLRFSSS
B6: il2ra_site1_2b5i_normal_mot_f5ff40796168375b462bec8614a1db4a_0001_1_000000138_0001_53_65_H_._HHH_b1_08222_0001_0000100001_0000001_0_af2pred_dldesign_0_af2pred (protein)
chain: SSSSSSRRELLEALIEEAKKLLEEGKNEEARKLLLLARRLARKMGDEERLAEIDALLEKVSSSSS
B7: il2ra_site2_2erj_sap_18_mot_HHH_b2_02773_000000031_0001_43_57_H_._HHH_b1_04639_af2_0001_0000300012_0000001_0_0001 (protein)
chain: SSSSDTELAHELLRFVYELAVKLGLSLEQLEELAELLQELLERGVSEEEAEEELRKLAEELSSSS
B8: il2ra_site2_2erj_normal_mot_HHH_b2_06726_000000006_0001_1_16_H_._HHH_b1_04199_0001_0000300043_0000001_1_af2pred_0001_af2pred (protein)
chain: SSSSSSEYREEIEELIEEARRVDEEEAVALLAEAAFLAVRNKDEEIFREVAELSLELYRRSSSSS
B9: il2ra_site2_3nfp_sap_32_mot_HHH_b1_04747_af2_000000013_0001_38_56_H_._d2d2be67f51fdd0abb6cd2a96bdf45ff_0001_1_0001_0000100002_0000001_0_0001 (protein)
chain: SSSSDTREFAEEVAERLRELRKEGNEEELRELLARAIHYVWERRDSEAYAILAQVAFKLHSSSSS
B10: il2ra_site1_1z92_normal_mot_HHH_b1_01245_000000029_0001_23_39_H_._HHH_b1_02142_0001_0000100011_0000001_0_af2pred_0001_af2pred (protein)
chain: SSSSDEERAAKTAVRIIAEAAGLSEEQQEELEKLAEELVERGLSLLEIKRELIKIAAKLLSSSSS
B11: il2ra_site1_1z92_sap_14_mot_HHH_b2_05238_af2_000000252_0001_38_55_H_._HHH_b1_07235_0001_0000500020_0000001_0_0001_af2pred_0001_af2pred_1_swapped (protein)
chain: SSSSDEELEEFAEQVVEELVREFGLSEHDKEALERDAEAAVRAGFSPRSIRIALRRAVEDQSSSS
B12: il2ra_site1_2b5i_sap_7_mot_HHH_b1_00824_af2_000000079_0001_41_56_H_._706564c13a40034bb3de594a58ae2d05_0001_0001_0000300014_0000001_0_0001_af2pred_dldesign_0_af2 … (protein)
chain: SSSSSSPREDIEALIAEARALHEAGEPERARRLLTLARRLARKHDDAEALARIAEVEAELSSSSS
B13: il2ra_site1_2b5i_normal_mot_HHH_b1_00095_000000042_0001_1_14_H_._HHH_b2_06882_af2_0001_0000200010_0000001_0_af2pred_dldesign_0_af2pred (protein)
chain: SSSSSSPEALAAEAKARADELRKAGKRREAIELLEETAKELGKLNDPKAEELIDELAKLISSSSS
B14: il2ra_site2_3nfp_sap_23_mot_HHH_b1_02676_000000238_0001_38_56_H_._HHH_b2_07018_0001_0000200005_0000001_0_0001 (protein)
chain: SSSSDEEEELEEYIKELEKLLEEGDKEEFERLLREASQLAWEANDTEIFMLLAELLLKVASSSSS
B15: il2ra_site1_3nfp_sap_14_mot_HHH_b1_06981_000000192_0001_1_19_H_._7a3d71bd8e0044baaa50656571eb2fb7_0001_af2_0001_0000100007_0000001_0_0001_af2pred_0001_af2pred_1 (protein)
chain: SSSSDLERIEELLRQAHELAERGNYEEARRLIEEALEIAEELGDEHTRKILEHLLKILESISSSS
B16: il2ra_site2_2erj_normal_mot_HHH_b1_03107_000000098_0001_39_52_H_._HHH_b1_08755_af2_0001_0000400023_0000001_0 (protein)
chain: SSSSDELYERVAELLVQAQEAYQRGDEELLEELLEEARRVAEEANSPALRRYVEYVRRDASSSSS
B17: il2ra_site1_3nfp_sap_24_mot_bca1cc675e315f79de6ed5a5a20872d8_0001_000000179_0001_36_50_H_._beb1d263b9c7401a962785d3a1373af0_0001_af2_0001_0000600024_0000001_0_0 … (protein)
chain: SSSSDELQKRVEELLKRISELLQEGDEEEARKLIEEVEELAEEANSPAAKLLAERLERLVDSSSS
B18: il2ra_site1_1z92_normal_mot_b1fbee8209167eaadba3689d49187f1a_0001_1_af2_000000019_0001_16_31_H_._HHH_b2_02076_af2_0001_0000100014_0000001_0_af2pred_0001_af2pred … (protein)
chain: SSSSSEEEELEKLVEELIKEYGADEHNKEALERDAQHSREAGFSERNIEQALRSAIRLLLSSSSS

Biological target: il2ra, P01589
Assay: yeast display titration

Apparent Kd, inactive:
B1 no binding seen
B2 no binding seen
B3 no binding seen
B4 no binding seen
B5 no binding seen
B6 no binding seen
B7 no binding seen
B8 no binding seen
B9 no binding seen
B10 no binding seen
B11 no binding seen
B12 no binding seen
B13 no binding seen
B14 no binding seen
B15 no binding seen
B16 no binding seen
B17 no binding seen
B18 no binding seen

2 records picked at random from the list so far:
Apparent Kd, inactive:
B18 no binding seen
B4 no binding seen
